Results are given in words; binding and its absence hold for the method and conditions named. In cells and extracts the contact can be indirect. Binding calls can cover weak binding; strength is not graded here.

One assay concerns the target FKBP12-C-Luc-K45Q (UniProt P62942). Briefly: split reporter; split luciferase: FKBP12 fused to C-Luc, FRB or Rheb fused to N-Luc, cotransfected in HEK293T; rapamycin treatment for 6 h; with or without TSA or NAM pretreatment for 2 h; luciferase activity.
A further assay deals with FKBP12-C-Luc-K45R (UniProt P62942). The assay is described as above.

For Rheb-N-Luc (from UniProt Q15382 1-184), the binding entry in the assay with FKBP12-C-Luc-K45Q and in the assay with FKBP12-C-Luc-K45R was “binds” in each case.

The values are drawn from paper PMC8529501 (iScience, 2021).
